# Measured data: PubChem BioAssay AID1159578 (Peter MacCallum Cancer Centre, 2015)
# Aim: 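Genome-wide hunt for genes controlling movement of lymphatic endothelial cells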 (primary screen)
# Cell system: human lymphatic endothelial cells
# Knock-down reagent: siRNA pool against human genes, 40 nM
# Duration: 48 h after transfection
# Read-out: 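Cells stained with dye and imaged after a scratch; covered wound area and nuclei counted, duplicates averaged, migration set against mock wells and turned into a robust z-score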
# Direction: migration robust z-score: higher = faster migration into the scratch; migration relative to mock: higher = more scratch area covered than mock; nuclei per well: higher = more cells in the well
# Active means: 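Migration changed when robust z exceeds 2 or falls below -2 and mean nuclei number is at least 3300; otherwise not called changed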
# Calls: active = migration changed; inactive = no migration change, or too few cells
# Here is one part, drawn at random, of about 18,000 reagents. Of all reagents, about 1,030 (5.7%) were called active. 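Inactive calls also include pools with fewer than 3300 nuclei, whose migration was not assessed.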 Raw values are not corrected between plates. The numbers tell different reagents against one gene apart.
target gene,pool no.,migration robust z-score,migration class with cell-count check,migration relative to mock,"nuclei per well, duplicate mean",Call
ROCK1,1,-0.2,migration z between -2 and 2; enough cells,0.76,5504,inactive
KRTAP20-2,1,-1.19,migration z between -2 and 2; enough cells,0.58,5468,inactive
PCDH11X,1,-2.61,migration z below -2; enough cells,0.21,5298,active
SREK1IP1,1,0.36,migration z between -2 and 2; enough cells,0.98,4105,inactive
MOSPD1,1,-0.23,migration z between -2 and 2; enough cells,0.83,5402,inactive
SLC32A1,1,0.6,migration z between -2 and 2; enough cells,1.04,5382,inactive
SLC1A6,1,-1.68,migration z between -2 and 2; enough cells,0.45,4840,inactive
FAM194C,1,-1.18,migration z between -2 and 2; enough cells,0.58,6107,inactive
OR9G1,1,0.14,migration z between -2 and 2; enough cells,0.92,6402,inactive
CFAP20DC,1,0.64,migration z between -2 and 2; enough cells,1.05,6014,inactive
NINJ2,1,-0.66,migration z between -2 and 2; enough cells,0.71,5844,inactive
TRMT9B,1,-0.7,migration z between -2 and 2; enough cells,0.7,5140,inactive
RSAD1,1,-0.44,migration z between -2 and 2; enough cells,0.77,6080,inactive
RPF2,1,-0.78,migration z between -2 and 2; enough cells,0.68,4348,inactive
EMG1,1,2.58,migration z above 2; enough cells,1.55,5456,active
AMY1A,1,-1.09,migration z between -2 and 2; enough cells,0.6,4605,inactive
ZIC3,1,-0.21,migration z between -2 and 2; enough cells,0.82,6658,inactive
OCIAD1,1,0.48,migration z between -2 and 2; enough cells,1.01,6056,inactive
ASH1L,1,-1.94,migration z between -2 and 2; enough cells,0.43,4557,inactive
DYM,1,0.16,migration z between -2 and 2; enough cells,0.92,4306,inactive
BLTP3A,1,-0.24,migration z between -2 and 2; enough cells,0.82,6409,inactive
SDHD,1,-0.47,migration z between -2 and 2; enough cells,0.72,5380,inactive
ELMOD3,1,-0.42,migration z between -2 and 2; enough cells,0.72,5192,inactive
CYP3A5,1,-0.55,migration z between -2 and 2; enough cells,0.74,5340,inactive
OR10G3,1,0.07,migration z between -2 and 2; enough cells,0.9,5338,inactive
UBE2L3,1,0.99,migration z between -2 and 2; enough cells,0.99,5147,inactive
BEND6,1,0.05,migration z between -2 and 2; enough cells,0.9,5595,inactive
ATP8B3,1,0.21,migration z between -2 and 2; enough cells,0.84,5746,inactive
WASL,1,0.86,migration z between -2 and 2; enough cells,1.11,5470,inactive
TFAP2C,1,-2.75,migration z below -2; enough cells,0.28,3466,active
CCDC183,1,0.93,migration z between -2 and 2; enough cells,1.12,5961,inactive
FAM114A2,1,-0.11,migration z between -2 and 2; enough cells,0.86,6381,inactive
GPX7,1,-0.47,migration z between -2 and 2; enough cells,0.72,5706,inactive
TTLL1,1,0.26,migration z between -2 and 2; enough cells,0.86,5106,inactive
ALKBH8,1,0.69,migration z between -2 and 2; enough cells,1.06,5946,inactive
NT5M,1,-0.94,migration z between -2 and 2; enough cells,0.62,5182,inactive
OR2F2,1,0.2,migration z between -2 and 2; enough cells,0.94,5706,inactive
IHO1,1,-0.39,migration z between -2 and 2; enough cells,0.78,6986,inactive
C2orf42,1,0.82,migration z between -2 and 2; enough cells,1.1,7144,inactive
HOGA1,1,2.19,migration z above 2; enough cells,1.46,7877,active
HLA-DQA1,1,0.24,migration z between -2 and 2; enough cells,0.85,5384,inactive
SS18L2,1,-0.36,migration z between -2 and 2; enough cells,0.79,4403,inactive
CCNG2,1,0.6,migration z between -2 and 2; enough cells,0.92,5654,inactive
SLITRK5,1,-0.26,migration z between -2 and 2; enough cells,0.82,6030,inactive
SEPTIN4,1,-2.54,migration z below -2; enough cells,0.32,3942,active
SEPTIN4,2,1.52,migration z between -2 and 2; enough cells,1.28,5676,inactive
OVOS2P,1,0.46,migration z between -2 and 2; enough cells,1.01,6454,inactive
RBM15,1,-1.38,migration z between -2 and 2; enough cells,0.52,5376,inactive
MUS81,1,0.92,migration z between -2 and 2; enough cells,1.12,6396,inactive
COMP,1,-0.01,migration z between -2 and 2; enough cells,0.89,4676,inactive
LIPF,1,0.7,migration z between -2 and 2; enough cells,0.94,6578,inactive
CPSF2,1,-0.96,migration z between -2 and 2; enough cells,0.64,5620,inactive
PLB1,1,-3.84,migration z below -2; enough cells,0.06,4968,active
FRAT2,1,-1.07,migration z between -2 and 2; enough cells,0.6,5224,inactive
FCGBP,1,0.64,migration z between -2 and 2; enough cells,1.05,6297,inactive
MMP26,1,0.52,migration z between -2 and 2; enough cells,0.9,5770,inactive
PITRM1,1,0.39,migration z between -2 and 2; enough cells,0.88,5628,inactive

Entries listed so far whose target name starts with B or b (2):
target gene,pool no.,migration robust z-score,migration class with cell-count check,migration relative to mock,"nuclei per well, duplicate mean",Call
BLTP3A,1,-0.24,migration z between -2 and 2; enough cells,0.82,6409,inactive
BEND6,1,0.05,migration z between -2 and 2; enough cells,0.9,5595,inactive
